These results are taken from publication PMC9795042.

The target in assay [1] is T1, V5-his6-tagged PGAM2 (phosphoglycerate mutase 2), wild type (mouse), O70250.
T1 chain: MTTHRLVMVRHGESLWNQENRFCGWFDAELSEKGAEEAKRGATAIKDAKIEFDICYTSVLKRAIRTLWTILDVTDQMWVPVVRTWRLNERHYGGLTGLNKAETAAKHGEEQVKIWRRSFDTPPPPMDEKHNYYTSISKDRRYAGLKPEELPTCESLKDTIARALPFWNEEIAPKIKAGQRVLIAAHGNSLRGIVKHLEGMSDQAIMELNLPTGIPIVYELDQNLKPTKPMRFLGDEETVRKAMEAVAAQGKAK
As to the kind of experiment: co-IP; C2C12 cells co-transfected with HA-PGAM2-wt and PGAM2-wt-V5-his or PGAM2-K176R-V5-his; lysates precipitated with anti-V5 antibody (V5 antibody-conjugated agarose beads) or IgG control; blots with anti-V5-HRP and anti-HA-HRP. The conditions noted are these: remark: other sources report otherwise.

In assay [2] the target is T2, V5-his6-tagged PGAM2 K176R mutant (mouse) (UniProt O70250).
T2 sequence: T1 chain with K176R
Described as above.

Numbering of substitutions follows the chain as printed. Results are given in words; binding and its absence hold for the method and conditions named. Binding seen in cells or lysates may run through a third protein. Some entries that bind do so weakly or less than the wild type. Where a sequence is shown, tags or fusion partners need not be part of it.

B1: HA-tagged PGAM2 (phosphoglycerate mutase 2), wild type, O70250 1-253 (enzyme)
chain: T1 chain
B1: the binding result in assay [1] is “binds”.

B2: HA-tagged PGAM2 (phosphoglycerate mutase 2), wild type (enzyme, UniProt O70250 1-253)
chain: T1 chain
As for B2, the binding result in assay [2] is “binds”.
